Results as given in US20070071675A1.
These are yes or no findings as the source states them, for the method shown. Some binding calls cover weakened binding; strength is not graded here.

By UniProt entry, the sequences of proteins in these tests, tags left out. Residues count along the entry.
UniProt P01583, residues 113-271: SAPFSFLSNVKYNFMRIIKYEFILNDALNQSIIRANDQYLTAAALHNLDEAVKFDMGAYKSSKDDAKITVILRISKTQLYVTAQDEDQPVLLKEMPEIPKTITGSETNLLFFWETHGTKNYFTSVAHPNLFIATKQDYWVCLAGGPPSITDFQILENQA
UniProt P01584, residues 117-269: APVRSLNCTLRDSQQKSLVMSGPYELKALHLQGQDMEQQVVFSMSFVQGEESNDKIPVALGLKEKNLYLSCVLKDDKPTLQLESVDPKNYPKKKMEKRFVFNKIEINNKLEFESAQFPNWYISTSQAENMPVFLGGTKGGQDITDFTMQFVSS

B1: chimeric 3D12.E3 antibody (3D12.E3-VH-hCγ1 / 3D12.E3-VL-hCκ) (antibody, human IgG1, kappa, V domains shown)
VH: QIQLVQSGPELKKPGETVKISCKASGYTFRNYGMNWVKQAPGKDLKRMAWINTYTGESTYADDFKGRFAFSLETSASTAYLQINNLKNEDTATYFCARGIYYYGSSYAMDYWGQGTSVTVSS
VL: NIQMTQTTSSLSASLGDRVTISCRASQDISNCLNWYQQKPDGTVKLLIYYTSRLHSGVPSRFSGSGSGTDYSLTISNLEQEDIATYFCQQGKTLPYAFGGGTKLEINR
B2: chimeric 13F5.G5 antibody (13F5.G5-VH-Cγ1 / 13F5.G5-VL-Cκ) (antibody, human IgG1, kappa, V domains shown)
VH: QVQLQQSGAELVRPGSSVKISCKASGYAFSSYWMNWVKQRPGQGLEWIGQIYPGDGDTNYNGKFKGKATLTADKSSSTSYMQLSGLTSEDSAMYFCVRFPTGNDYYAMDYWGQGTSVTVSS
VL: NIVLTQSPASLAVSLGQRATISCRASESVDSYGNSYMHWYQQKPGQPPKLLIYLASNLESGVPARFSGSGSRTDFTLTIDPVEADDAATYYCQQNNEDPFTFGSGTKLEIKR

Columns and labels:
[1] = molecular target: recombinant human IL-1α (human) (UniProt P01583); experiment: SPR (Biacore)
[2] = molecular target: recombinant human IL-1β (human) (UniProt P01584); experiment: SPR (Biacore)

| Binder | binding [1] | binding [2] |
| --- | --- | --- |
| B1 | binds |  |
| B2 |  | binds |
